{"source": "patent US8753570B2", "about": "“Structure, synthesis, and applications for oligo phenylene ethynylenes” (STC.UNM, priority 2008, dated 2014)", "format_in_all_cases": "binding", "key": {"[1]": {"test": "Fluorescence quenching by anionic electron acceptor AQS (Stern-Volmer)", "details": "early (low AQS) stages of complex formation/quenching"}, "[2]": {"test": "Self-assembly / complex formation on carboxymethylamylose (absorption, fluorescence)", "details": "two-state model, dimer assumed; estimated from absorbances"}, "[3]": {"test": "Self-assembly / complex formation on carboxymethylcellulose (absorption, fluorescence)", "details": "two-state model, dimer assumed; estimated from absorbances", "excerpt": "N-OPE:CMC complexes can be formed by adding small aliquots of CMC to aqueous solutions containing the N-OPE compound. […] [N-OPE-1]=1.5×10^−5M. […] [N-OPE-2]=1.5×10^−5 and [CMC]=0-4.2×10^−5M. Both excitation and emission slits are 2.5 nm. Excitation wavelength for N-OPE-1 is 355 nm and for N-OPE-2 is 375 nm. For both N-OPEs there are several isosbestic points in the absorption spectra as the two bands in the absorption for water alone are replaced by a spectrum of the N-OPE:CMC having two bands at longer wavelength. For both N-OPEs the fluorescence also undergoes a red shift and increase in intensity as aliquots of CMC are added, finally leveling off at moderate concentrations (greater than 1 mM) of CMC. […]\nBinding constants (assuming that an N-OPE dimer is formed in each case) can be estimated from a determination of the individual absorbances of the two species following a treatment for a similar two-state system developed by Pasternack and co-workers. […]\nSelf-assembly is not limited solely to the non-symmetrical N-OPE compounds. […] The changes that occur for S-OPE-1 (H), N-OPE-1 and S-OPE-1 (COOEt) (sharp, red shifted absorption spectra, isosbestic points maintained throughout the CMC addition and red-shifted fluorescence) are consistent with an extension of effective conjugation for the oligomers on the carboxylate decorated surface of the CMC."}}, "note": "At least one compound was matched to its structure with a doubt left."}
{"smiles": "CCOC(=O)c1ccc(C#Cc2cc(OCCC[N+](C)(C)C)c(C#Cc3ccccc3)cc2OCCC[N+](C)(C)C)cc1.[Cl-].[Cl-]", "note": "[N-OPE-1]", "values": [{"measurement": "Stern-Volmer quenching constant KSV", "setting": "[1]", "result": 6700, "unit": "M⁻¹"}]}
{"smiles": "CCOC(=O)c1ccc(C#Cc2cc(OCCC[N+](C)(C)C)c(C#Cc3ccc(C#Cc4cc(OCCC[N+](C)(C)C)c(C#Cc5ccccc5)cc4OCCC[N+](C)(C)C)cc3)cc2OCCC[N+](C)(C)C)cc1.[Cl-].[Cl-].[Cl-].[Cl-]", "note": "[N-OPE-2]", "values": [{"measurement": "binding constant K, CMA:(N-OPE)2", "setting": "[2]", "result": "2.4×1012 M-2"}, {"measurement": "Stern-Volmer quenching constant KSV", "setting": "[1]", "result": 81000, "unit": "M⁻¹"}, {"measurement": "binding constant K, CMC:(N-OPE)2", "setting": "[3]", "result": "1.3×1010 M-2"}]}
